Experimental data: PubChem BioAssay AID1347426 (Functional Genomics Laboratory (NCATS/FGL), 2020)
Out of some 31,000 sequences screened, about 1,400 (4.5%) were called active.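 How the source made its calls: active means median seed-adjusted z-score above 1 or below -1; inactive means the rest.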 The list shows a part of the results.

experiment: Novel Modifiers of Survival Motor Neuron (SMN) Protein: Gene Identification via Genome-wide siRNA Screen; conditions: HEK293T SMN2-luciferase reporter, siRNA knockdown, 72 h; actives lie on both sides;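 further: luminescence tracks full-length SMN protein made from the SMN2 reporter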
Summary of the method: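 HEK293T cells stably carrying an SMN2 promoter/splicing cassette–luciferase reporter were reverse-transfected with 1 pmol siRNA per well (druggable-genome library, 3 siRNAs per gene) and grown 72 h at 37 °C. Luminescence, normalized to negative-control siRNA and log10-transformed, was scored as MAD.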

Sequence | median seed-adjusted z-score
GGCAGAAGCUAGAUCCCAATT against TPI1 | inactive: 0.447
GACCCAACCUUUGUAUGCATT against ZHX3 | inactive: -0.0916
CCAGUUCUUUCUACGGCAATT against PUM1 | inactive: 0.109
GCAGCCUUGUCAUCGACAATT against PDLIM1 | inactive: -0.189
CACCCGCAAUGAUUACAGUTT against STAT5B | inactive: 0
GCUAAGAGACGACAUUGAATT against TEKT3 | inactive: 0.0494
GAUUCCGAGUUGCUGCGUATT against PLCD4 | inactive: -0.4
CCAGGACUGAAGUAUGGUATT against ENTPD3 | inactive: -0.28
GAGUUGCGCUUCAAACAAUTT against SHC1 | inactive: 0.0401
AAAACUCCGUUUCUAAUUATT against TP53I13 | inactive: 0
CACUUCAGAUGACAACCUATT against KCTD13 | inactive: -0.273
GGCUUAGUGUGCAUCACAATT against PAPSS1 | inactive: -0.648
GAAGUAGGAAGGUUAAGAATT against NUCB2 | inactive: 0.45
CACUUAUACUAAGCACCAATT against CCNB1 | inactive: 0.163
CGUCAGCGACAAAACGUAATT against UBAC2 | inactive: 0.611
UGCUGUUCGUGGAUUUCAATT against CDX4 | inactive: 0.181
GUGUUACCCUGGUGAAAGATT against VNN2 | inactive: -0.583
CCCAUGAGAUGAUAAUGGATT against ZNF713 | inactive: -0.0652
GGAGAUUAAUCACCAACUUTT against DERL2 | inactive: -0.27
CCUUCAAACUGAACUCCAATT against ASL | inactive: 0.0344
UGAAGGCCGUCAUUCCAGATT against GPER | inactive: 0.157
CGCUGGAUGGUUUUAAGAATT against P4HB | inactive: -0.0514

Sequence | median seed-adjusted z-score
GCAUCAAGAGAAUAAAGCUTT against MXD1 | inactive: -0.763
GCAGUACAGUGAAUGCCGATT against AKAP8 | inactive: -0.252
GGAUUGUUAUCCGACUGAATT against LRP6 | inactive: -0.116
CAAUAAAUGUCAUAUUGCUTT against GK2 | inactive: 0
CUACUGCGAGGACAACUAUTT against ABI3 | inactive: 0.114
AAACCAUCAUUUACCCUAUTT against SLC25A23 | inactive: 0.325
GCACGGUAAUUUUGACAGUTT against CD302 | inactive: 0.0818
GGAGCGAAGCUGUCACUGUTT against RHPN1 | inactive: 0.161
GCGUGAGGAUGAUAAACCATT against AK3 | inactive: -0.0313
CACAUAGGCUAUUCCCUAATT against TIPIN | inactive: 0
GGACAGAUCUUACCCAUCUTT against TRIM59 | inactive: 0.941
AUAUCGCUGUGAUGCAAAATT against PLA2G12B | inactive: -0.162
GCAAUGCCUUAUUUAUAAUTT against LIPF | inactive: 0.54
CAGUCUUGUGAAUAUGAUATT against RALGPS2 | inactive: 0.0124
CGAUAAGUUCAAAGACAAATT against NKIRAS1 | inactive: 0.113
CAGACUCUCCGAUCUCUGATT against NRIP3 | inactive: -0.699
GGACUACCUUUCUCAUCAATT against B3GALTL | inactive: -0.259
GGAUGUGAAUGGAUCUUGUTT against TAAR8 | inactive: 0.0792
UGCCCUUGGCUAUCCCUGATT against SLC30A3 | active: -1.26
ACAUGCUUGUCUCAACUCUTT against ZNF575 | inactive: 0.458
AGAAAUGUCUUGUAGUGAATT against SYT14L | inactive: 0.2
CGACAUCUACUGCUGUUUATT against PCDHA7 | inactive: 0.552

2 entries picked at random from the list so far, as already listed:
Sequence | median seed-adjusted z-score
CGCUGGAUGGUUUUAAGAATT against P4HB | inactive: -0.0514
CCCAUGAGAUGAUAAUGGATT against ZNF713 | inactive: -0.0652

Remaining list, next part.

Sequence | median seed-adjusted z-score
GACUAUUUAAACAACCUUUTT against FGD5 | inactive: -0.0561
GAAGUAGACUUGAUACGAATT against AQR | active: -1.56
GCGGCAGUGUUAGCAGCUATT against PACSIN1 | inactive: -0.681
CCCUUUCCGAGAUAACGUATT against ATIC | inactive: -0.0267
GGAAGGACAUGUAUGAGAATT against ITPKC | inactive: 0.218
GGCUUAAACUUAGAGUCAATT against MYLIP | inactive: 0.652
CAAGCAAGCCGAGAACUUUTT against SIAH2 | inactive: 0.156
CCUACAUCGUGAACAAGAATT against EMILIN2 | inactive: 0.726
GGACGACUUCUUUAAGUCATT against PGD | active: -1.55
GACUGUAACAUCAUACUGATT against ZNF544 | inactive: -0.00739
GGAGAUGCAUAAAAGGAAATT against BTN2A3 | inactive: -0.483
CGCAAUGACCUGUACCUAATT against DOCK3 | inactive: 0.51
CCACCGCCUACUUCCUGUATT against CD74 | inactive: 0.0748
GCCUGAUUCUAUUGCAUCATT against PKNOX1 | inactive: 0.68
CCAUUGGGCUAUGACCUGATT against ACOT4 | inactive: -0.158
GCCUUGGAUCGAAAAAGUATT against ODF1 | inactive: 0.912
GGCGACGAUUCUUCCUUCATT against PTHLH | inactive: 0.00556
GGAUCUACUGGAAGAAGUATT against MTA2 | inactive: 0.947
CUACCGGAUUGAGAUGGAATT against MEGF6 | inactive: 0
GACAAAUCACCAUUCGUUATT against PPARG | inactive: -0.0309
CCAUCUCCAGUUGUAUUUUTT against CHKA | inactive: -0.558
GAAUUGACCUUCUUAGGAATT against TDRD9 | inactive: 0.0754

Sequence | median seed-adjusted z-score
GAUGCCCAGUGUCCUGUUATT against PIF1 | inactive: -0.0455
CCAUCGAUGAUGACUGUAATT against ETFB | inactive: 0.0669
CCUACUCCAUGGUGGGAUATT against SP7 | inactive: -0.0435
CCCACACUCUAGACUGAAATT against MEF2D | inactive: 0.0021
GGGACUCAGUACUUCCAUATT against SLC39A8 | inactive: 0.265
GAACCUUCAUUUCGAGGAATT against ZNF397 | inactive: -0.107
GCAUGAGUAUCUAUGACGATT against ATP5C1 | inactive: -0.0179
CCAUGGACCUUACUGGAGATT against ARHGDIB | inactive: -0.549
GGAUGCUCAGACAAGAAUATT against LPAL2 | inactive: 0.7
GCAGUUAGAUGUCAGGACATT against PPIA | inactive: 0.0169
CAGUAUACGUGGUGCACGATT against PFKL | inactive: 0
GAACUUGUCUUGACCACCATT against DHX16 | inactive: 0.102
CAGCUAACCUGAAGAUGCUTT against E2F7 | inactive: -0.0972
GUAUUUCGGGCACAACAAATT against MGST2 | inactive: 0.387
GAACCUACAUCAUCAGUAUTT against GJA1 | inactive: 0.348
CUACUCAACAGACAUAAUATT against TRIP13 | active: 1
GCUCAGUUAGAUUCCAUCATT against CRYL1 | inactive: 0.0852
CUGGGAGUCUUGAGCCUAATT against BRD2 | inactive: -0.242
GAAUGUUCUGGACAGUGAATT against PDIA6 | inactive: -0.269
GCACAGACUCCAGACCCUATT against SHPK | inactive: 0
AGGUGAUCGCGGACUAUGATT against EDF1 | inactive: 0.0783
AGUCCUUGAACCUACCAAATT against ZNF410 | inactive: -0.135

Given as tab-separated lines: entries from further up
Sequence	median seed-adjusted z-score
GGAUGCUCAGACAAGAAUATT against LPAL2	inactive: 0.7
GCUCAGUUAGAUUCCAUCATT against CRYL1	inactive: 0.0852
AGUCCUUGAACCUACCAAATT against ZNF410	inactive: -0.135

Following part:

Sequence | median seed-adjusted z-score
GCAUCAUCCGAUGGAAAUATT against GJD3 | inactive: -0.251
CGGCCCUGUUUUUAUGAUATT against MTHFD1 | inactive: 0.554
AGUCCAACUUAGGUCUAGATT against TGFB3 | inactive: -0.354
GGUAUAGGCACAGAACUCATT against SLC30A9 | inactive: -0.0779
GAACUGUACGCACUCAUGATT against ZAP70 | inactive: -0.674
GGCAUACAACUGUAUGGUATT against TLR1 | inactive: 0
CCCUUACAAUGCAAUUGAATT against ERBB4 | inactive: 0.166
GGAAAAUCGUGAAGUCGAUTT against RAB18 | inactive: 0
GGAUUUGAUGCACCAUGAATT against LAIR2 | inactive: -0.481
CAUGGAGUGUAUUACUGCATT against ILDR1 | inactive: -0.318
GGAAGAUUGUCGCUCCUCATT against TFAP2C | active: 1.28
GGACAGGAAGUUUACCUCUTT against TBC1D25 | inactive: 0.0296
AUCUUGAGCUCUUCAUUUATT against TPT1 | inactive: 0.236
GAAGGAGAACAGUCGUGAATT against SLC9A3R1 | inactive: -0.418
GCGGAGACCUAGGAACUUUTT against NKX2-5 | inactive: 0.719
GACUGGAAAGUACAAGGCUTT against ARSA | inactive: 0.0938
GCCUUUGACUUGGUGAAUATT against INPP5A | inactive: -0.00941
CGCUGUCUCGGGAGAGAAATT against SFRS3 | active: 2.74
CAAUAGAAUCGUUCAAGAATT against CLDN1 | inactive: 0.307
AGGUGCUAGUAGGAAGCUATT against EIF6 | inactive: 0
